One series has as its target TRIM25 CC (UniProt Q14258). Description: ITC. The settings on record: assigned to CC by order; residues 189-379.
Series [1] deals with TRIM25 PRY/SPRY (UniProt Q14258). Kind of series: ITC. The settings on record: residues 439-630.
The target is the same in series [2]. Description: NMR. The conditions noted are these: residues 439-630.
Series [3] deals with TRIM25 CC-PRY/SPRY 381-392 7KA (UniProt Q14258). Description: ITC. The settings on record: residues 189-630.

By UniProt entry, the sequences of proteins in these tests, tags left out. Residues count along the entry.
UniProt Q14258, 189-379: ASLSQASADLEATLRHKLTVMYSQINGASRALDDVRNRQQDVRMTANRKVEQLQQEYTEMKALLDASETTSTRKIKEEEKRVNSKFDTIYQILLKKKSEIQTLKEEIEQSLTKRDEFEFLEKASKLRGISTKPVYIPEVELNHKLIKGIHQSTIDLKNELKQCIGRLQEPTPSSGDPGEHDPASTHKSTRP
UniProt Q14258, 439-630: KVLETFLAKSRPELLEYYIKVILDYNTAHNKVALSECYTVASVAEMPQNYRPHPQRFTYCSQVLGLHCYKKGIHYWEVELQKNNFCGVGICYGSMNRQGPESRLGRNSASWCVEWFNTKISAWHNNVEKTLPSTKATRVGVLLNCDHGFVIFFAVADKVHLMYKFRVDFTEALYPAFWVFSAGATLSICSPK
UniProt Q14258, 189-630: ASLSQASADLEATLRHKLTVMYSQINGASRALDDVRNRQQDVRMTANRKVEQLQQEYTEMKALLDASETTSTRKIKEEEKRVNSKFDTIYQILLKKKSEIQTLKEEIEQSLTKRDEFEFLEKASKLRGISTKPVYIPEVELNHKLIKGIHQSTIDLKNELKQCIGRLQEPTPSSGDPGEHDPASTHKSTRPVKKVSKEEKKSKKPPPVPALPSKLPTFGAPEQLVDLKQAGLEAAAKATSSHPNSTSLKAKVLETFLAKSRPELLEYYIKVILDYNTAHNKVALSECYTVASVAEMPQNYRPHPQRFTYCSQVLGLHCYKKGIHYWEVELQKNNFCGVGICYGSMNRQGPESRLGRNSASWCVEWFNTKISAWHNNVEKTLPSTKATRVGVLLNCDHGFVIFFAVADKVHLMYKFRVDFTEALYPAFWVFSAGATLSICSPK

The text below walks through data of publication doi:10.1101/2020.05.04.070177.

For part of these data: A weaker result is weaker than the reference pair of the same experiment. The exact form of at least one protein or probe is not confirmed. For part of these data: At least one verdict rests on a figure or table, not on a statement of the authors.

The term Kd denotes the equilibrium constant for the complex coming apart. Lower therefore signals tighter binding.

UAAAAGGAGAU [pre-let-7 loop] showed a Kd with TRIM25 CC of 30 µM.

Turning to UGAGUUGGA [Lnczc3h7a-SL loop], the binding result in the series with TRIM25 PRY/SPRY [1] (too weak to be quantified) and with TRIM25 PRY/SPRY [2] (very weak CSPs at site 1) was “binds more weakly” in each case. Moreover, the Kd with TRIM25 CC stood at 32 µM.

“AUGGCUAGCUGGAGCCACCCGCAGUUCG / CGAACUGCGGGUGGCUCCAGCUAGCCAU [28-mer duplex RNA]”: the binding result in the series with TRIM25 PRY/SPRY [2] (CSPs mostly at site 2, signal loss) is “binds”.

As to UUUUAUCUGAGUUGGAGGUGAAG [Lnczc3h7a-SL], the binding result with TRIM25 PRY/SPRY [1] (very weak binding, assigned to PRY/SPRY by order) was “binds more weakly”. In addition, the Kd with TRIM25 CC came out at 14 µM.

With “GUAUAGUUUAAAAGGAGAUAACUAUAC [pre-let-7a-1@2]”, the Kd was 0.428 µM in series [3] (first of two fitted sites, text says short stem loop RNAs) and 967 µM in series [3] (second fitted site).
